{
  "source": "paper PMC8666665",
  "molecules": {"B1": {"name": "Flag-KPC2 (protein, UniProt Q9BSL1 1-405)", "chain": "MFVQEEKIFAGKVLRLHICASDGAEWLEEATEDTSVEKLKERCLKHCAHGSLEDPKSITHHKLIHAASERVLSDARTILEENIQDQDVLLLIKKRAPSPLPKMADVSAEEKKKQDQKAPDKEAILRATANLPSYNMDRAAVQTNMRDFQTELRKILVSLIEVAQKLLALNPDAVELFKKANAMLDEDEDERVDEAALRQLTEMGFPENRATKALQLNHMSVPQAMEWLIEHAEDPTIDTPLPGQAPPEAEGATAAASEAAAGASATDEEARDELTEIFKKIRRKREFRADARAVISLMEMGFDEKEVIDALRVNNNQQNAACEWLLGDRKPSPEELDKGIDPDSPLFQAILDNPVVQLGLTNPKTLLAFEDMLENPLNSTQWMNDPETGPVMLQISRIFQTLNRT"}, "B2": {"name": "GST-KPC2 (protein, UniProt Q9BSL1 1-405)", "chain": "MFVQEEKIFAGKVLRLHICASDGAEWLEEATEDTSVEKLKERCLKHCAHGSLEDPKSITHHKLIHAASERVLSDARTILEENIQDQDVLLLIKKRAPSPLPKMADVSAEEKKKQDQKAPDKEAILRATANLPSYNMDRAAVQTNMRDFQTELRKILVSLIEVAQKLLALNPDAVELFKKANAMLDEDEDERVDEAALRQLTEMGFPENRATKALQLNHMSVPQAMEWLIEHAEDPTIDTPLPGQAPPEAEGATAAASEAAAGASATDEEARDELTEIFKKIRRKREFRADARAVISLMEMGFDEKEVIDALRVNNNQQNAACEWLLGDRKPSPEELDKGIDPDSPLFQAILDNPVVQLGLTNPKTLLAFEDMLENPLNSTQWMNDPETGPVMLQISRIFQTLNRT"}, "B3": {"name": "KPC2 fused to the N-term part of Renilla luciferase (F1) (protein, UniProt Q9BSL1 1-405)", "chain": "MFVQEEKIFAGKVLRLHICASDGAEWLEEATEDTSVEKLKERCLKHCAHGSLEDPKSITHHKLIHAASERVLSDARTILEENIQDQDVLLLIKKRAPSPLPKMADVSAEEKKKQDQKAPDKEAILRATANLPSYNMDRAAVQTNMRDFQTELRKILVSLIEVAQKLLALNPDAVELFKKANAMLDEDEDERVDEAALRQLTEMGFPENRATKALQLNHMSVPQAMEWLIEHAEDPTIDTPLPGQAPPEAEGATAAASEAAAGASATDEEARDELTEIFKKIRRKREFRADARAVISLMEMGFDEKEVIDALRVNNNQQNAACEWLLGDRKPSPEELDKGIDPDSPLFQAILDNPVVQLGLTNPKTLLAFEDMLENPLNSTQWMNDPETGPVMLQISRIFQTLNRT"}},
  "key": {"KPC2-hRluc-F[2]": {"biological_target": "T1, KPC2-hRluc-F[2] (UniProt Q9BSL1)", "T1 sequence": "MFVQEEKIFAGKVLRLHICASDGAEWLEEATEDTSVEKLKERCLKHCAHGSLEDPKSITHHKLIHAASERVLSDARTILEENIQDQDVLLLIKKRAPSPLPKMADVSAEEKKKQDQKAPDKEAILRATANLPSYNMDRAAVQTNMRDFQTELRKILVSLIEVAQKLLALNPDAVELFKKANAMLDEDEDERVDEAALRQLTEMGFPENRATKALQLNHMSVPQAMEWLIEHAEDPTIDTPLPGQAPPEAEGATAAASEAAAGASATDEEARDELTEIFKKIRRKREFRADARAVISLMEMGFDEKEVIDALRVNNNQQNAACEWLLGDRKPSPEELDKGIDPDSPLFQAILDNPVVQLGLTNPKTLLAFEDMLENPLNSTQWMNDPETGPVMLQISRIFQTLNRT", "assay": "split reporter; protein-fragment complementation assay: Renilla luciferase fragments F1 and F2 fused to the two proteins, co-transfected HEK/293T cells, coelenterazine-h 5 μM"}, "[1]": {"biological_target": "T2, KPC2 fused to the N-term part of Renilla luciferase (F1) (UniProt Q9BSL1)", "T2 sequence": "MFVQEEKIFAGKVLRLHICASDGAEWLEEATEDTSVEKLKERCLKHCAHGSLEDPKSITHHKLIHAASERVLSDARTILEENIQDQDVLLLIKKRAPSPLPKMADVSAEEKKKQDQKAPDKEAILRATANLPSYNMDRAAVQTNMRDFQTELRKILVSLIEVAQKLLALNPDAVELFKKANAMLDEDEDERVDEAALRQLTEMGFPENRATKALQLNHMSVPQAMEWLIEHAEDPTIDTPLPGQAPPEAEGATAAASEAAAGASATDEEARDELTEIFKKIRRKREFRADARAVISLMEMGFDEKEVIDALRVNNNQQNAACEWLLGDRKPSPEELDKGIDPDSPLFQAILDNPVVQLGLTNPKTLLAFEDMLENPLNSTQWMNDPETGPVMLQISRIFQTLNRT", "assay": "split reporter; competitive protein-fragment complementation assay: CD95/KPC2 luciferase signal with overexpression of CD95 regions in HEK/293T cells"}, "Flag-KPC2": {"biological_target": "T3, Flag-KPC2 (UniProt Q9BSL1)", "T3 sequence": "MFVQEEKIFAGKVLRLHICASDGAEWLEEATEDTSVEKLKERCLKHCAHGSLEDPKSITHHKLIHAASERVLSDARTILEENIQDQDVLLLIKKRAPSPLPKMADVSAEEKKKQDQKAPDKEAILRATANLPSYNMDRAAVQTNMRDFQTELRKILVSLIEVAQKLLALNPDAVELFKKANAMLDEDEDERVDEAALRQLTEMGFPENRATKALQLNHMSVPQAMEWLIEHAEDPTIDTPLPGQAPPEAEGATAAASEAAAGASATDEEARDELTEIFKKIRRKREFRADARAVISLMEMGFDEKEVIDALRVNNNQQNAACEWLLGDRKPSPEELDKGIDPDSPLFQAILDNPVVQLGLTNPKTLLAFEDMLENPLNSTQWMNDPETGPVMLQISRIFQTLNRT", "assay": "co-IP; Flag immunoprecipitation (antibody-conjugated beads, overnight, IP buffer) from co-transfected CD95 k.o. HEK/293T cells, KPC2 co-transfected; immunoblotting"}, "[2]": {"biological_target": "HA-CD95(1-303)-GFP (human)", "assay": "co-IP; HA immunoprecipitation of HA-tagged CD95-GFP constructs from CD95 k.o. HEK/293T cells co-transfected with Flag-KPC2, Flag-p65 or Flag-p65 fragments, 24 h after transfection; immunoblotting"}, "[3]": {"biological_target": "HA-CD95(1-319)-GFP (human)", "assay": "co-IP; HA immunoprecipitation of HA-tagged CD95-GFP constructs from CD95 k.o. HEK/293T cells co-transfected with Flag-KPC2, Flag-p65 or Flag-p65 fragments, 24 h after transfection; immunoblotting"}, "[4]": {"biological_target": "GST-V5-CD95 (175-210) (human)", "assay": "pull-down; 100 ng of purified GST-V5-CD95 domains mixed with lysate (1 mg) of HEK/293T cells transfected with Flag-KPC2 or Flag-p65, 2 h at 4°C, then anti-V5 agarose beads overnight; Hepes buffer, 150 mM NaCl; immunoblotting; only the target purified"}, "[5]": {"biological_target": "GST-V5-CD95 (211-303) (human)", "assay": "pull-down; 100 ng of purified GST-V5-CD95 domains mixed with lysate (1 mg) of HEK/293T cells transfected with Flag-KPC2 or Flag-p65, 2 h at 4°C, then anti-V5 agarose beads overnight; Hepes buffer, 150 mM NaCl; immunoblotting; only the target purified"}, "[6]": {"biological_target": "GST-V5-CD95 (303-319) (human)", "assay": "pull-down; 100 ng of purified GST-V5-CD95 domains mixed with lysate (1 mg) of HEK/293T cells transfected with Flag-KPC2 or Flag-p65, 2 h at 4°C, then anti-V5 agarose beads overnight; Hepes buffer, 150 mM NaCl; immunoblotting; only the target purified"}, "[7]": {"biological_target": "GST-V5-CD95 (303-319) (human)", "assay": "pull-down; cell-free: 100 ng of each purified GST protein mixed 1 h at room temperature in IP buffer (25 mM Hepes, 150 mM NaCl, 2 mM EDTA, 1% Triton X100), anti-V5-agarose beads 2 h at 4°C; immunoblotting; both purified"}, "[8]": {"biological_target": "CD95 fused to the C-term region of Renilla luciferase (F2) (human)", "assay": "split reporter; competitive protein-fragment complementation assay: CD95/KPC2 luciferase signal with overexpression of CD95 regions in HEK/293T cells"}, "[9]": {"biological_target": "CD95 fused to the C-term region of Renilla luciferase (F2) (human)", "assay": "split reporter; protein-fragment complementation assay: Renilla luciferase fragments F1 and F2 fused to the two proteins, co-transfected HEK/293T cells, coelenterazine-h 5 μM"}},
  "note": "No constants are given. Whether binding was seen depends on the method and setting. For part of these data: A result given as binding can be weak or reduced; the word gives no strength. Sequences can lack the tags named with a protein. For part of these data: In cells and extracts the contact can be indirect.",
  "data": [
    {"molecule": "CD95(175-210)-hRluc-F[1] (human) (domain or fragment)", "values": [
      {"measurement": "binding", "setting": "KPC2-hRluc-F[2]", "value": "no binding"}
    ]},
    {"molecule": "CD95(303-319)-hRluc-F[1] (human) (domain or fragment)", "values": [
      {"measurement": "binding", "setting": "KPC2-hRluc-F[2]", "value": "binds"}
    ]},
    {"molecule": "CD95(211-303)-hRluc-F[1] (human) (domain or fragment)", "values": [
      {"measurement": "binding", "setting": "KPC2-hRluc-F[2]", "value": "no binding"}
    ]},
    {"molecule": "overexpressed whole intracellular region of CD95 (competitor in the PCA) (human) (domain or fragment)", "values": [
      {"measurement": "binding", "setting": "[1]", "value": "binds"}
    ]},
    {"molecule": "overexpressed C-terminal region (303–319 residues) of CD95 (competitor in the PCA) (human) (domain or fragment)", "values": [
      {"measurement": "binding", "setting": "[1]", "value": "binds"}
    ]},
    {"molecule": "CD95(175–319)-F1 (human) (domain or fragment)", "values": [
      {"measurement": "binding", "setting": "KPC2-hRluc-F[2]", "value": "binds"}
    ]},
    {"molecule": "HA-CD95(1-319)-GFP (human) (receptor)", "values": [
      {"measurement": "binding", "setting": "Flag-KPC2", "value": "binds"}
    ]},
    {"molecule": "B1", "values": [
      {"measurement": "binding", "setting": "[2]", "value": "no binding"},
      {"measurement": "binding", "setting": "[3]", "value": "binds"},
      {"measurement": "binding", "setting": "[4]", "value": "no binding"},
      {"measurement": "binding", "setting": "[5]", "value": "no binding"},
      {"measurement": "binding", "setting": "[6]", "value": "binds"}
    ]},
    {"molecule": "B2", "values": [
      {"measurement": "binding", "setting": "[7]", "value": "binds"}
    ]},
    {"molecule": "B3", "values": [
      {"measurement": "binding", "setting": "[8]", "value": "binds"},
      {"measurement": "binding", "setting": "[9]", "value": "binds"}
    ]}
  ]
}
